Laboratory results: paper PMC2629585
Results are given in words; binding and its absence hold for the method and conditions named. For part of these data: In cells and extracts the contact can be indirect. Some entries that bind do so weakly or less than the wild type. For part of these data: Sequences can lack the tags named with a protein.

Sequences of proteins named here, by UniProt entry; tags and fusion partners are left off. A change or cut given only in a name is not applied to a line headed by its entry. Residues count along the entry.
UniProt Q15485, residues 26-313: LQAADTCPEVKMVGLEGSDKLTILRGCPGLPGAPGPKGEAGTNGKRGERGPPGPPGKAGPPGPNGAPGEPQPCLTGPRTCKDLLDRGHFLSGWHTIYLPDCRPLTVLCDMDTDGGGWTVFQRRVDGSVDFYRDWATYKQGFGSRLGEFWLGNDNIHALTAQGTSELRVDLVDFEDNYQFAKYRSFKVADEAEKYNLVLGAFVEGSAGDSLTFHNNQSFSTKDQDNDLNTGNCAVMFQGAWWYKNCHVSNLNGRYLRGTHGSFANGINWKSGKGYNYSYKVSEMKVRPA
UniProt O75636, residues 24-299: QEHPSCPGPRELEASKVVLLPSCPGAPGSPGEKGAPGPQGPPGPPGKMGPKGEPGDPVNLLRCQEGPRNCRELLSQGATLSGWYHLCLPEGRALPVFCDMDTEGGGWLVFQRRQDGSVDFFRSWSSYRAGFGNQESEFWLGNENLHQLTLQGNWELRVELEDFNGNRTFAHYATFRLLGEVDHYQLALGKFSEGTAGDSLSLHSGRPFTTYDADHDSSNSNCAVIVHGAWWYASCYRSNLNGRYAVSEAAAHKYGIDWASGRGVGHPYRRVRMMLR
UniProt O00602: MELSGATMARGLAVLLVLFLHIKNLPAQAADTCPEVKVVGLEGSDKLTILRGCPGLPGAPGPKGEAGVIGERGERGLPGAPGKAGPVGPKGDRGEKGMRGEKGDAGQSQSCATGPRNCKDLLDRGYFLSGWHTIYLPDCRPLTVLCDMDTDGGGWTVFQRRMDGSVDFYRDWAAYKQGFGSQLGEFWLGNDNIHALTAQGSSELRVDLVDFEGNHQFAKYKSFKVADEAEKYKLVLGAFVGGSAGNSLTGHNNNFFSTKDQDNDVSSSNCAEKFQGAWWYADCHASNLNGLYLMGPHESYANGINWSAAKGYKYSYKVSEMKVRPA
UniProt O00187, residues 16-686: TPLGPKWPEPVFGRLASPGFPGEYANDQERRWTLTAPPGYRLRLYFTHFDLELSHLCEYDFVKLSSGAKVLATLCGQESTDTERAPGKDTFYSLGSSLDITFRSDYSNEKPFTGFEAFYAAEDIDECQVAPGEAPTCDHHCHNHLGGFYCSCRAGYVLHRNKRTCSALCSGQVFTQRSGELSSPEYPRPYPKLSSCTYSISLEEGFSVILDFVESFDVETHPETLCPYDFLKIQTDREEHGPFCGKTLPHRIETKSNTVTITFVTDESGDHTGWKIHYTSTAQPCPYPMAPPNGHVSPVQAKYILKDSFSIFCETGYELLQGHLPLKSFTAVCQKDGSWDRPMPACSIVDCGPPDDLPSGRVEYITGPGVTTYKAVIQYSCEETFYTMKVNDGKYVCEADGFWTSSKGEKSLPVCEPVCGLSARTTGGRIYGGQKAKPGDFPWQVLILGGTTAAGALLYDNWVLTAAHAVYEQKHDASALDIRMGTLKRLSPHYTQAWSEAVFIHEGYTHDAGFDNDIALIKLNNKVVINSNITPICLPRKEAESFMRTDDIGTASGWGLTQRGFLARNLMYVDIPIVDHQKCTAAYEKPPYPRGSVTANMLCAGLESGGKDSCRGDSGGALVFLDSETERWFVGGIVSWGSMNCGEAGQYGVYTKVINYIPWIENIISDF

Key:
[1] = molecular target: T1, C-reactive protein (CRP), endogenous in human patient serum (human (endogenous in serum)) (UniProt P02741); experiment: co-IP; 10% patient serum, 50 mM MES pH 6.5, 145 mM NaCl, 1% NP-40, 0 or 2 mM CaCl2; rabbit polyclonal anti-CRP, protein A Sepharose, 4 C; Western blot
T1 sequence: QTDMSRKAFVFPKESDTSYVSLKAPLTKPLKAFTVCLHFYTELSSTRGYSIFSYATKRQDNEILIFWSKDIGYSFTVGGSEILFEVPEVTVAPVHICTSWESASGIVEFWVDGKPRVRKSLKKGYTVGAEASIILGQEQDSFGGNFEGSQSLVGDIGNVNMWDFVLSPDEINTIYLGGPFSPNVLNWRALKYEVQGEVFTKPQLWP

[2] = molecular target: T1, C-reactive protein (CRP), endogenous in human patient serum (human (endogenous in serum)); experiment: co-IP; 10% patient serum, 50 mM Tris pH 7.4, 145 mM NaCl, 1% NP-40, 0 or 2.5 mM CaCl2; rabbit polyclonal anti-CRP, protein A Sepharose, 4 C; Western blot
[3] = molecular target: T2, C-reactive protein (CRP), human, purified (Sigma) (human) (UniProt P02741); experiment: ELISA; 0.8 ug CRP immobilised on Maxisorp wells; 0, 0.5, 0.8 and 1 ug of L-, H- or M-ficolin added; bound ficolin detected by antibodies; HSA-coated wells subtracted; both purified
T2 sequence: T1 sequence

[4] = molecular target: T2, C-reactive protein (CRP), human, purified (Sigma) (human); experiment: co-IP; 10% healthy serum reconstituted with 10 ug/ml CRP (text: pH and calcium adjusted to infection-inflammation condition; legend: pH 7.4, 2.5 mM calcium); rabbit polyclonal anti-CRP, protein A Sepharose; Western blot; only the target purified
[5] = molecular target: T3, CRP, yeast two-hybrid fusion (UniProt P02741); experiment: two-hybrid; yeast two-hybrid; growth on QDO plates; empty vector controls for autoactivation
T3 sequence: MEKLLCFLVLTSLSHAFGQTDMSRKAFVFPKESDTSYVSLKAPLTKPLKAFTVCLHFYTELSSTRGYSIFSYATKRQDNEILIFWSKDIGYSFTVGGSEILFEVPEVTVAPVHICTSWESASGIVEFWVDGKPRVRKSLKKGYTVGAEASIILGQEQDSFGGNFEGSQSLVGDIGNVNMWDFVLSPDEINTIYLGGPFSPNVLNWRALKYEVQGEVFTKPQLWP

L-ficolin (human) [6] = molecular target: L-ficolin (human) (UniProt Q15485); experiment: ELISA; competition; 0.8 ug L-ficolin immobilised; 0.8 ug CRP with increasing MASP-2 or 0.8 ug MASP-2 with increasing CRP; MBS, 0.05% Tween-20, 1% HSA, pH 6.5, 2 mM calcium; both purified
L-ficolin (human) [7] = molecular target: L-ficolin (human) (UniProt Q15485); experiment: ELISA; competition; 0.8 ug L-ficolin immobilised; 0.8 ug CRP with increasing MASP-2 or 0.8 ug MASP-2 with increasing CRP; TBS, 0.05% Tween-20, 1% HSA, pH 7.4, 2.5 mM calcium; both purified

Q: With H-ficolin (from UniProt O75636 24-299) as the substance, how does the binding [1] read?
A: no binding

Q: What about the binding [2] of the same substance?
A: no binding

Q: What about the binding [3] of the same substance?
A: no binding (tested: up to 1 ug H-ficolin per well)

Q: What about the binding [4] of the same substance?
A: no binding

Q: Which binding [1] does the source give for L-ficolin (from UniProt Q15485 26-313) here?
A: binds

Q: With “M-ficolin, recombinant (from UniProt O00602 30-326)” as the substance, how does the binding [3] read?
A: binds

Q: For “M-ficolin, yeast two-hybrid fusion (from UniProt O00602 1-326)”, which binding [5] is on record?
A: binds

Q: How did the binding (L-ficolin (human) [6]) turn out when “Recombinant MASP-2 (from UniProt O00187 16-686) (enzyme)” was run?
A: binds

Q: What about the binding (L-ficolin (human) [7]) of the same substance?
A: binds
